Drawing on article PMC7909837, “Function and Regulation of Chloroplast Peroxiredoxin IIE” (Antioxidants, 2021), this text covers binding for four molecules.

No constants are given. Whether binding was seen depends on the method and setting. Binding seen in cells or lysates may run through a third protein. A yes stands for co-enrichment or nearness to the bait. Other partners may have been found. Where a sequence is shown, tags or fusion partners need not be part of it.

The target of the assay is T1, Peroxiredoxin IIE (PRX-IIE), wild type, His6-tagged recombinant (A. thaliana) (UniProt Q949U7).
T1 sequence: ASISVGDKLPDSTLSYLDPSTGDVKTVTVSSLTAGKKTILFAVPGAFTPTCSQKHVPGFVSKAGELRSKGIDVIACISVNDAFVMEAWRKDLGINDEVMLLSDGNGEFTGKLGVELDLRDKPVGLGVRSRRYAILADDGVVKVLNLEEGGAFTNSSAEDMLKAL
Description: affinity purification with mass spectrometry; reduced His-tagged PRX-IIE or PRX-IIE C146S (3 mg) bound to 1 mL Ni-NTA resin; A. thaliana leaf protein extract (about 40 mg) applied, RT, 1.5 h; washes 50 mM Tris-HCl pH 8.0 and with 200 mM NaCl; first elution 50 mM DTT, second elution 50 mM DTT + 500 mM imidazole; nano-LC ESI-QTOF-MS; Ni-NTA without PRX-IIE as control; only the target purified.

B1: Fructose-bisphosphate aldolase 5 (enzyme, UniProt O65581 1-358)
chain: MSAFVGKYADELIKTAKYIATPGKGILAADESTGTIGKRFASINVENIESNRQALRELLFTSPGTFPCLSGVILFEETLYQKTTDGKPFVELLMENGVIPGIKVDKGVVDLAGTNGETTTQGLDSLGARCQEYYKAGARFAKWRAVLKIGATEPSELSIQENAKGLARYAIICQENGLVPIVEPEVLTDGSHDIKKCAAVTETVLAAVYKALNDHHVLLEGTLLKPNMVTPGSDSPKVAPEVIAEYTVTALRRTVPPAVPGIVFLSGGQSEEEATLNLNAMNKLDVLKPWTLTFSFGRALQQSTLKAWAGKTENVAKAQATFLTRCKGNSDATLGKYTGGASGDSAASESLYEEGYKY
Take B1: the binding entry is “binds”.

B2: 4-Hydroxy-tetrahydrodipicolinate synthase 1 (enzyme, UniProt Q9LZX6 40-365)
chain: AVVPNFHLPMRSLEDKNRTNTDDIRSLRVITAIKTPYLPDGRFDLQAYDDLVNTQIENGAEGVIVGGTTGEGQLMSWDEHIMLIGHTVNCFGGRIKVIGNTGSNSTREAIHATEQGFAMGMHGALHINPYYGKTSIEGMNAHFQTVLHMGPTIIYNVPGRTCQDIPPQVIFKLSQNPNMAGVKECVGNNRVEEYTEKGIVVWSGNDDQCHDSRWDHGATGVISVTSNLVPGLMRKLMFEGRNSALNAKLLPLMDWLFQEPNPIGVNTALAQLGVARPVFRLPYVPLPLSKRIEFVKLVKEIGREHFVGDRDVQVLDDDDFILIGRY
As for B2, the binding result is on record as “binds”.

B3: Fructose-bisphosphate aldolase 4 (enzyme, UniProt F4KGQ0 1-393)
chain: MSCFKSKFAGKSYFRRTFHSSIIQFHPQLSILIWHRRYSIIRTYELIANAAYIGTPGKGILAADESTGTIGKRFVSINVENVESNRRALRELLFTTPGALQYISGIILFEETLYQKTASGKLFVDVMKEAGVLPGIKVDKGTVELAGTNGETTTTGLDGLGDRCKKYYEAGARFAKWRAVLKIGNNEPSELAIHENAYGLARYAVICQENGLVPIVEPEILVDGSHDIEKCAYVTERVLAACYKALSDHHVILEGTLLKPNMVTPGSDSGSKVKPEVIAKHTVRALQRTVPAAVPAVVFLSGGQSEEEATVNLNAINQLKGKKPWSLTFSYGRALQQSTLKAWGGKEENVDKAQKAFLARAKANSEATLGGYKGDAQLGEGASESLHVKDYKY
B3: the binding entry is given as “binds”.

B4: 14-3-3 υ, endogenous (protein, UniProt P42645 1-268)
chain: MSSDSSREENVYLAKLAEQAERYEEMVEFMEKVAKTVETEELTVEERNLLSVAYKNVIGARRASWRIISSIEQKEDSRGNSDHVSIIKDYRGKIETELSKICDGILNLLEAHLIPAASLAESKVFYLKMKGDYHRYLAEFKTGAERKEAAESTLVAYKSAQDIALADLAPTHPIRLGLALNFSVFYYEILNSSDRACSLAKQAFDEAISELDTLGEESYKDSTLIMQLLRDNLTLWTSDLNDEAGDDIKEAPKEVQKVDEQAQPPPSQ
As for B4, the binding result is “binds”.
